PubChem BioAssay AID1671195 – Yale University | 2021

Purpose: 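Genes whose knockdown alters LDL uptake in liver cancer cells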 (primary screen)
Cells: human Huh7 hepatoma cells
Knock-down reagent: siRNA pool against human genes, 18 nM
Duration: about 2 to 2.5 days of knockdown, then 8 h LDL uptake
Conditions: DiI-labelled LDL at 30 µg/ml for 8 h, in lipoprotein-deficient serum medium
Read-out: 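Per-cell DiI-LDL intensity by automated imaging; well means scaled to the plate median and given as a robust z-score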
Direction: robust z-score: higher = more LDL uptake after knockdown
Active means: 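Active when two or more replicates show a robust z-score above 2 or below -2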
The whole screen tested about 22,000 reagents; this is a part drawn at random. In the full data, about 1,510 (6.9%) got an active call. 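Active includes knockdowns raising or lowering LDL uptake; positive z-scores mean more uptake, negative mean less.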

gene knocked down	robust z-score, replicate 1	robust z-score, replicate 2	robust z-score, replicate 3	call
MBLAC1 (GeneID 255374)	-1.09	-0.631	-1.23	inactive
RPL14 (GeneID 9045)	-2.04	-0.504	-2.18	active
FCHSD1 (GeneID 89848)	-0.391	-0.308	-0.594	inactive
OR4D1 (GeneID 26689)	0.512	-1.01	-1.43	inactive
PAEP (GeneID 5047)	-1.62	-1.41	-1.63	inactive
DHPS (GeneID 1725)	-2.61	-2.15	-1.95	active
LOC440476 (retired record) (GeneID 440476)	-0.0119	-0.592	-0.417	inactive
KCNMB2 (GeneID 10242)	-0.286	-0.479	0.0103	inactive
KLF2 (GeneID 10365)	0.0783	-0.00639	-0.162	inactive
LINC00900 (GeneID 283143)	-0.816	-0.182	-0.232	inactive
UBE2V2 (GeneID 7336)	-0.779	-0.49	-1.64	inactive
IER5 (GeneID 51278)	2.35	1.82	2	active
LOC388509 (retired record) (GeneID 388509)	-0.869	-1.01	-0.856	inactive
ZXDA (GeneID 7789)	-2.05	-1.23	-1.85	inactive
EXO5 (GeneID 64789)	-0.407	-0.316	-0.385	inactive
GTPBP10 (GeneID 85865)	3.79	2.81	2.24	active
WNT4 (GeneID 54361)	0.473	0.535	0.612	inactive
GTSCR1 (GeneID 220158)	-0.428	-0.529	-0.0628	inactive
PRDM12 (GeneID 59335)	1.26	0.804	1.76	inactive
FAF2 (GeneID 23197)	-0.302	2.15	-0.903	inactive
TM4SF1 (GeneID 4071)	0.23	1.28	0.472	inactive
MRPS2 (GeneID 51116)	1.14	0.443	1.19	inactive
ARHGEF7 (GeneID 8874)	3.02	3.36	2.41	active
KRTAP8-1 (GeneID 337879)	-0.0491	-0.0223	0.384	inactive
SLC25A14 (GeneID 9016)	0.403	0.629	0.596	inactive
ZIM3 (GeneID 114026)	-0.386	0.0468	0.309	inactive
SH3GL1 (GeneID 6455)	0.058	-1.23	-0.735	inactive
LOC441696 (retired record) (GeneID 441696)	-0.654	-1.12	-0.871	inactive
TRIM32 (GeneID 22954)	1.33	1.8	1.48	inactive
ARHGDIA (GeneID 396)	-0.449	-0.786	-0.987	inactive
CLK2 (GeneID 1196)	-1.41	-0.577	-1.38	inactive
MIB2 (GeneID 142678)	1.29	3.31	2.64	active
LOC441467 (retired record) (GeneID 441467)	-0.315	-0.566	-0.948	inactive
FAM222A (GeneID 84915)	-0.446	0.567	-0.277	inactive
RSPH3 (GeneID 83861)	-1.15	-1.48	-1.63	inactive
ICMT-DT (GeneID 148645)	-0.781	-0.712	-1.26	inactive
TMEM86A (GeneID 144110)	-0.782	-0.202	-0.757	inactive
VMA12 (GeneID 147007)	0.737	1.49	1.06	inactive
ZSWIM9 (GeneID 374920)	-0.639	-0.842	-0.921	inactive
LOC441105 (retired record) (GeneID 441105)	-1.1	-1.31	-1.45	inactive
TTC31 (GeneID 64427)	-0.752	-1.24	-0.353	inactive
COL2A1 (GeneID 1280)	1.86	-0.671	0.495	inactive
NES (GeneID 10763)	-1.19	-1.07	0.44	inactive

Continued; the last 11 above are carried over.
gene knocked down	robust z-score, replicate 1	robust z-score, replicate 2	robust z-score, replicate 3	call
LOC441467 (retired record) (GeneID 441467)	-0.315	-0.566	-0.948	inactive
FAM222A (GeneID 84915)	-0.446	0.567	-0.277	inactive
RSPH3 (GeneID 83861)	-1.15	-1.48	-1.63	inactive
ICMT-DT (GeneID 148645)	-0.781	-0.712	-1.26	inactive
TMEM86A (GeneID 144110)	-0.782	-0.202	-0.757	inactive
VMA12 (GeneID 147007)	0.737	1.49	1.06	inactive
ZSWIM9 (GeneID 374920)	-0.639	-0.842	-0.921	inactive
LOC441105 (retired record) (GeneID 441105)	-1.1	-1.31	-1.45	inactive
TTC31 (GeneID 64427)	-0.752	-1.24	-0.353	inactive
COL2A1 (GeneID 1280)	1.86	-0.671	0.495	inactive
NES (GeneID 10763)	-1.19	-1.07	0.44	inactive
YARS2 (GeneID 51067)	0.531	0.251	0.107	inactive
GGNBP2 (GeneID 79893)	1.98	1.65	1.64	inactive
PRDM16 (GeneID 63976)	0.914	1.32	1.97	inactive
RPL7P38 (GeneID 120872)	-0.675	-0.757	-1.26	inactive
CDK7 (GeneID 1022)	1.63	1.22	0.554	inactive
SMARCE1 (GeneID 6605)	0.629	1.36	1.48	inactive
ZNF320 (GeneID 162967)	0.935	-0.157	0.759	inactive
SPRY1 (GeneID 10252)	-1.05	-1.61	-0.958	inactive
TRIM4 (GeneID 89122)	-0.76	-1.36	-0.0907	inactive
OR2M4 (GeneID 26245)	1.08	1.16	-0.205	inactive
FBXL21P (GeneID 26223)	0.981	-0.0315	-1.19	inactive
PLA2G7 (GeneID 7941)	1.26	0.0957	0.959	inactive
LOC400852 (retired record) (GeneID 400852)	-0.0502	-0.177	0.0618	inactive
AFG2B (GeneID 79029)	-0.75	0.909	0.72	inactive
LOC388227 (retired record) (GeneID 388227)	-0.797	-0.518	-0.339	inactive
CRSP8P (GeneID 441089)	-0.285	-0.758	-0.193	inactive
KRTAP5-3 (GeneID 387266)	-1.32	-1.78	-1.67	inactive
ZNF821 (GeneID 55565)	1.55	1.89	0.754	inactive
KRT18 (GeneID 3875)	0.25	0.313	0.184	inactive
LOC613266 (GeneID 613266)	-0.441	-0.446	-0.0137	inactive
CHRNB1 (GeneID 1140)	-1.83	-2.22	-1.66	inactive
EPB41L3 (GeneID 23136)	-0.884	-1.37	-0.894	inactive
CASC22 (GeneID 283854)	3.02	3.22	2.64	active
LINC02138 (GeneID 400558)	5.6	5.46	5.53	active
ZFP64 (GeneID 55734)	0.953	0.782	0.826	inactive
PEPD (GeneID 5184)	1.06	1.75	1.73	inactive
LOC390386 (retired record) (GeneID 390386)	-0.641	-0.733	-0.611	inactive
NOG (GeneID 9241)	0.158	-0.121	-0.642	inactive
RANBP2 (GeneID 5903)	-0.152	0.0607	-0.144	inactive
ID1 (GeneID 3397)	-0.393	0.138	-0.348	inactive
NCKAP1 (GeneID 10787)	0.301	-0.000707	0.114	inactive
AOC3 (GeneID 8639)	0.576	0.701	1.28	inactive
CDK18 (GeneID 5129)	-1.41	-0.671	-0.503	inactive
PTPRS (GeneID 5802)	-0.0355	-0.416	0.562	inactive
ZNF713 (GeneID 349075)	-0.82	-0.941	-1.23	inactive
SPPL2B (GeneID 56928)	-0.246	0.394	-0.772	inactive
H2BC3 (GeneID 3018)	0.73	0.228	0.761	inactive
HTR4 (GeneID 3360)	0.9	0.25	0.697	inactive
HOXC10 (GeneID 3226)	0.281	-0.588	-0.211	inactive
RPS26P35 (GeneID 441377)	1.25	0.521	0.662	inactive
TRA2A (GeneID 29896)	-0.533	-0.787	-0.783	inactive
ABHD3 (GeneID 171586)	-0.351	-0.447	-0.157	inactive
PSME3 (GeneID 10197)	0.489	-0.356	-0.145	inactive
NOL11P1 (GeneID 643015)	-0.257	0.328	0.149	inactive
